In PubChem BioAssay AID488965 (Broad Institute, 2010):
The campaign covered roughly 340,000 compounds. About 210 (0.062%) were called active. Inconclusive means that the source gave no clear call. Such entries were picked first, then a sample of the others. Rule as the data show it: active = inhibition above about 30% (passing the limit was not always enough); inconclusive = no clear call, values can overlap the other calls.

The molecules below were run on PvdQ acylase [Pseudomonas aeruginosa LESB58] (assay: P. aeruginosa PvdQ acylase inhibitors, primary screen, biochemical, fluorescence, plate reader and imaging, single point (AID 488965;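 also: 0% = vehicle neutral wells and 100% = reference inhibitor wells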)). Conditions: purified PvdQ acylase, at 10 µM, stronger effect = higher value.

inhibition, inconclusive:
CN(C)CCN(C(=O)C1=COCCO1)c1nc2ccc(Cl)cc2s1 31.5%
Cc1cc(C)cc(NC(=O)C(OC(=O)c2cccs2)c2ccccc2)c1 (configuration not stated) 33.4%
COc1ccc(NC(=O)C(c2cc3c(cc2[N+](=O)[O-])OCO3)N2CCN(C=O)CC2)cc1 (configuration not stated) 32%
O=c1[nH]c(C2CCN(S(=O)(=O)c3ccc(C(F)(F)F)cc3)CC2)nc2c1nnn2Cc1ccc(F)cc1 37.8%
Cc1nc2ccc(S(=O)(=O)Nc3ccc(-c4nc5cccnc5s4)cc3)cc2s1 37%
CC(C)(C)OC(=O)N(CCc1ccccc1)Cc1ccccc1OCc1cccc(NC(=O)C2CC2)c1 31.8%
COCCCNC(=O)c1cc(S(=O)(=O)NCCCN2CCCC2=O)ccc1Cl 32.9%
Cc1ccc(NC(=O)C(c2ccccc2)N(C)C)cc1Cl (configuration not stated) 30.4%
NC(=O)COC(=O)c1ccc(-c2ccccc2)cc1 33.1%
CCSc1nc2cc(OC)c(OC)cc2c(=O)n1CC 34.5%
NS(=O)(=O)c1ccc(N2CCOCC2)c(C(=O)NCc2cccs2)c1 32.8%
O=C(/C=C/c1ccc2c(c1)OCCO2)c1ccccc1 33.1%
O=C1CCCN=C(Nc2ccc(F)c(Cl)c2)S1 33%
COc1cccc(Nc2nc(Nc3ccc(Cl)c(C(=O)O)c3)nc(C)c2[N+](=O)[O-])c1 30.3%
CCOC(=O)CSc1nnc(-c2ccc(S(=O)(=O)N3CCC(C)CC3)cc2)o1 47.1%
O=C(O)c1cccc(CN2C(=O)c3ccccc3C2=O)c1 33.4%
COc1ccccc1CNS(=O)(=O)CCNCCc1ccccc1 31.5%
O=C(/C=C/c1cccc([N+](=O)[O-])c1)c1cccs1 31.4%
CCCc1nc2sc3ccccc3c(=O)c2c(=O)n1Cc1ccccc1 30.4%
CC(C)Cn1nc(C(=O)Nc2nnc(C3CC3)s2)c2ccccc2c1=O 33.8%
Cc1cccc(NCc2ccccc2O)n1 38.6%
CC(=O)Nc1nc(-c2ccc(Cl)cc2)ns1 30.2%
Cc1ccc(C(=O)/C=C/Nc2cccc([N+](=O)[O-])c2)o1 40.2%
CCN(c1ccc(NC(=O)CCNC(=O)c2ccco2)cc1)C(C)C 33.1%
CC1(OC(=O)CCc2ccccc2)C(=O)C=C2C=C(c3ccc(C#N)cc3)N(Cc3ccccc3)C=C2C1=O (configuration not stated) 30.9%
Cn1c(=O)c2c(ncn2CC(=O)OCC(=O)NCc2ccc(Cl)cc2)n(C)c1=O 34.4%
CSCCC(NC(=O)c1ccc([N+](=O)[O-])cc1Cl)C(=O)OCC(=O)N(C)C (configuration not stated) 38%
CCOC(=O)Nc1ccc2nc(N3CCCCCC3)sc2c1 34.4%
CCOc1ccccc1-c1cc(-c2n[nH]c(=S)n2CC)c2ccccc2n1 31.4%
CCOC(=O)c1ccc(N2CCN(c3ccccc3F)CC2)c(NC(=O)Nc2cccc(OC)c2)c1 32.8%
COc1ccccc1N(CC(O)Cn1ccnc1C)S(=O)(=O)c1ccccc1 (configuration not stated) 37.7%
c1ccc(CCc2ccccn2)cc1 33.9%
NC(=O)c1cc(Sc2ccccc2)nc2ccccc12 37%
COC(=O)C(C(=O)OC)c1ncccc1[N+](=O)[O-] 30.3%
Cc1ccc(-n2c(C)cn(C(=O)c3ccccc3)c2=S)cc1 30.9%
CN1C=CC=C/C1=C1\SC(=S)N(Cc2ccccc2)C1=O 30.9%
O=C(CSc1n[nH]c(=O)n1Cc1ccco1)c1ccc2c(c1)OCCO2 34.5%

Sorted by count of non-hydrogen atoms (low to high): some entries from above
inhibition, inconclusive:
Cc1ccc(C(=O)/C=C/Nc2cccc([N+](=O)[O-])c2)o1 40.2%
CCOC(=O)Nc1ccc2nc(N3CCCCCC3)sc2c1 34.4%
CC1(OC(=O)CCc2ccccc2)C(=O)C=C2C=C(c3ccc(C#N)cc3)N(Cc3ccccc3)C=C2C1=O (configuration not stated) 30.9%

Following part.

inhibition, inactive:
Nc1nc(N)nc(-c2ccccc2O)n1 1.36%
COc1cc(C(=O)NC(C)CCc2ccccc2)cc(OC)c1OC (configuration not stated) -2.48%
COc1cccc(C2=NOC(C(=O)NCc3ccccn3)C2)c1 (configuration not stated) 9.77%
O=C(c1cc(-c2ccncc2)nc2ccccc12)N1CCN(Cc2ccccc2)CC1 -0.896%
N#Cc1ccc(CN2CCN(C(=O)c3cc(C4CC4)nn3-c3ccccc3)CC2)cc1 -13.3%
Oc1[nH]c(=S)sc1C=C1N=c2ccccc2=N1 -15.7%
CCOC(=O)C1(CCCc2ccccc2)CCN(C(=O)C(C)n2cncn2)CC1 (configuration not stated) -4.89%
CN(C)C(=O)c1cc(C(=O)c2ccc(Cl)cc2Cl)c[nH]1 -10.5%
Cc1ccc(/C(N)=N/OC(=O)c2ccco2)cc1 -7.17%
COc1ccc(/C=C/c2onc(C)c2S(=O)(=O)N2CCC(C(=O)N3CCC(C)CC3)CC2)cc1 -3.3%
COc1cc(S(=O)(=O)Nc2ccc(C)cc2)ccc1NC(=O)c1ccncc1 -8.53%
Cc1nnsc1NC(=O)OCc1ccc(Cl)cc1Cl -2.09%
CC(=O)Nc1cccn(Cc2c(Cl)cccc2Cl)c1=O -13.8%
Cc1c(Cl)cccc1NC(=O)C1CC(=O)N(C2CCCC2)C1 (configuration not stated) 4.68%
Cc1ccc2nc(NC(=O)CN3C(=O)C4CC=CCC4C3=O)sc2c1 (configuration not stated) 14.5%
OC(CN1CCN(c2ccccc2)CC1)Cn1c2ccccc2c2ccccc21 (configuration not stated) -7.27%
CCOc1ccc(CNC(=O)CCSCc2ccccc2F)cc1OC -0.339%
CC1(C)Cc2cccc(OCC(=O)N3CCN(c4ccc([N+](=O)[O-])cc4)CC3)c2O1 3.43%
Cc1ccccc1-c1ccccc1N -2.26%
Cc1cc(CNC(=O)Cc2c(F)cccc2Cl)nn1C -7.95%

inhibition, active:
O=C(C1CCC1)N1CCN(c2ccc(Cl)cc2)CC1 35.9%
N#CC(c1cccc(Cl)c1)c1ncc(C(F)(F)F)cc1Cl (configuration not stated) 51.9%
O=[N+]([O-])c1ccc(-c2cccnc2)cc1 48.8%
Cc1cccc(NC(=O)c2ccc3c(c2)OCCO3)n1 37.3%
c1ccc2sc(-c3ccc4c(c3)OCO4)nc2c1 49%
COc1cccc(C(=O)CC(C#N)c2ccc(F)cc2)c1 (configuration not stated) 68.8%
N#CC(c1ccc(Cl)cc1)c1cccc(Cl)n1 (configuration not stated) 117%
Cc1cccc2c(=O)cc(C)n(Cc3ccccc3)c12 35.2%
Cc1ccc2nc(-c3ccc4c(c3)OCCO4)cn2c1 90.8%
COCC(=O)Oc1c(S(=O)(=O)c2ccc(C)cc2)c(C)nn1-c1ccccc1 34.3%

Random excerpt: four records from the list, in no set order.
inhibition, active:
O=[N+]([O-])c1ccc(-c2cccnc2)cc1 48.8%
Cc1cccc2c(=O)cc(C)n(Cc3ccccc3)c12 35.2%
Cc1cccc(NC(=O)c2ccc3c(c2)OCCO3)n1 37.3%
O=C(C1CCC1)N1CCN(c2ccc(Cl)cc2)CC1 35.9%
